The text below walks through data of the supplement of paper PMC8256030.

Test [1] has as its system SARS-CoV-2 -1 PRF reporter mCherry-FSE-GFP(-1). The test can be described thus: mCherry (red) intensity as percent of control; higher = higher upstream reporter expression. As to conditions: 10 µM; 24 h; HEK293T.
The test system is the same in test [2]. The test can be described thus: percent effect, decrease of GFP/mCherry ratio (-1 PRF reporter) relative to controls; higher = stronger frameshift inhibition. As to conditions: 10 µM; 24 h; HEK293T.
The subject of the next test is HEK293T. Briefly: percent viability (nuclei count) relative to control; higher = more viable cells. As to conditions: 10 µM; 24 h.

Values joined by “and” are separate entries in the source; they are usually repeats but may differ in a detail not shown here. Equal values may be shown once. Where a name gives a salt, the structure may show the parent alone. The list shows a part of the results. Single values are uncertain here, since repeats match poorly.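 HEK293T cells were given each compound shortly before transfection with a reporter in which red mCherry is followed by the SARS-CoV-2 frameshift element and then GFP in the −1 frame, so GFP appears only after frameshifting.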

For the compound `O=C(O)c1cc(/N=N/c2ccc(O)c(C(=O)O)c2)ccc1O`, the mCherry in test [1] is 117%. The percent effect in test [2] was -6.09%.

`COc1ccc(C(=O)N2CCCC2=O)cc1` [aniracetam]: in the test with HEK293T, the percent viability was 256% and 309%. Also, the mCherry in test [1] is 100% and 88.9%. Besides, the percent effect in test [2] is 1.43% and -7.39%.

As for `C[C@]12C=CC(=O)C=C1CC[C@@H]1[C@@H]2CC[C@]2(C)OC(=O)CC[C@@H]12` [testolactone], the percent viability in the test on HEK293T was 77.1%. Moreover, in test [1], the mCherry is 129%. In addition, the percent effect in test [2] amounted to 3.76%.

Turning to `O=c1[nH]c(=O)n(Cl)c(=O)n1Cl` [troclosene potassium], the percent viability in the test on HEK293T came to 288%. In addition, the mCherry in test [1] was 91.4%. Also, the percent effect in test [2] is 1.02%.

On to `Cc1ccc(-n2nccn2)c(C(=O)N2CCN(c3nc4cc(Cl)ccc4o3)CC[C@H]2C)c1` [Suvorexant], for which the percent viability with HEK293T was found to be 229%. In test [1], this compound yielded a mCherry of 103%. Moreover, the percent effect in test [2] stood at 0.699%.

In the case of `CN1CCN(C(=O)OC2c3nccnc3C(=O)N2c2ccc(Cl)cn2)CC1` (stereo not given) [zopiclone], in the test with HEK293T, the percent viability worked out at 204%. In test [1], this compound registered a mCherry of 113%. Also, in test [2], the percent effect was -2.49%.

Consider `Nc1c(Cl)cc(CC2=NCCN2)cc1Cl` [nemazoline], for which the percent viability in the test with HEK293T came to 219%. This compound also returned a mCherry in test [1] of 94.7%. The percent effect in test [2] is -6.65%.

Regarding `CN1C(=O)CCS(=O)(=O)C1c1ccc(Cl)cc1` (stereo not given) [chlormezanone], the percent viability with HEK293T was 132%. In addition, the mCherry in test [1] amounted to 98%. Besides, the percent effect in test [2] was -10.7%.

Regarding `CCCCCc1cc(O)c2c(c1)OC(C)(C)c1ccc(C)cc1-2` [cannabinol], the percent viability with HEK293T came to 124%. In addition, the mCherry in test [1] was 88.1%. Also, the percent effect in test [2] was -2.26%.

In the case of `Clc1ccc(C2(Cn3cncn3)OCCO2)c(Cl)c1` [azaconazole], the percent viability in the test with HEK293T came to 150%. Also, the mCherry in test [1] is 102%. In addition, the percent effect in test [2] is -2.19%.

For the compound `CN1C[C@H](CNC(=O)OCc2ccccc2)C[C@@H]2c3cccc4c3c(cn4C)C[C@H]21`, in the test with HEK293T, the percent viability was 607%. Besides, the mCherry in test [1] stood at 127%. In addition, the percent effect in test [2] came out at 4.12%.

`CN(c1nc2ccccc2s1)C1CCN(C[C@H](O)COc2ccc(F)c(F)c2)CC1` [lubeluzole]: the percent viability with HEK293T came to 126%. In test [1], this compound came in with a mCherry of 57.6%. The percent effect in test [2] is -14.3%.

Consider `CN1[C@@H]2CC[C@H]1C[C@@H](OC(=O)[C@H](CO)c1ccccc1)C2`, for which the percent viability in the test on HEK293T turned out to be 208%. The mCherry in test [1] was found to be 106%. Moreover, the percent effect in test [2] is -9.9%.

`C=CCN=C=S`: the percent viability in the test on HEK293T stood at 163%. In test [1], this compound came in with a mCherry of 98%. For the same compound, in test [2], the percent effect is -5.83%.

Consider `O=[N+]([O-])OCC(CO[N+](=O)[O-])O[N+](=O)[O-]`, for which, in the test on HEK293T, the percent viability turned out to be 172%. Moreover, the mCherry in test [1] is 106%. Also, the percent effect in test [2] was -4.71%.

For the compound `C=C[C@H]1CN2CC[C@H]1C[C@H]2[C@H](O)c1ccnc2ccccc12`, the percent viability in the test with HEK293T stood at 156%. In test [1], this compound displayed a mCherry of 127%. The percent effect in test [2] is 1.78%.

On to `CC(=O)OCC1=C(C(=O)O)N2C(=O)[C@@H](NC(=O)CCC[C@@H](N)C(=O)O)[C@H]2SC1`, for which, in the test with HEK293T, the percent viability stood at 447%. The mCherry in test [1] was 102%. Further, in test [2], the percent effect is -2.18%.

Consider `CC[C@@H](C)C(=O)O[C@H]1[C@H](O)[C@H]2[C@@H](CN3C[C@@H](C)CC[C@H]3[C@@]2(C)O)[C@@H]2C[C@]34O[C@]5(O)[C@@H](OC(=O)[C@@](C)(O)CC)CC[C@@]3(C)[C@@H]5[C@@H](OC(C)=O)[C@@H](OC(C)=O)[C@H]4[C@@]21O`, for which the percent viability with HEK293T is 419%. The compound further displayed a mCherry in test [1] of 109%. In addition, in test [2], the percent effect is -3.51%.

`CCN(CC)C(C)C(=O)c1ccccc1` (stereo not given) [amfepramone]: in the test with HEK293T, the percent viability was 217%. Further, in test [1], the mCherry was 88.8%. Further, the percent effect in test [2] came out at 0.0357%.

In the case of `COC[C@@H](NC(C)=O)C(=O)NCc1ccccc1` [lacosamide], the percent viability with HEK293T was determined as 299%. Besides, the mCherry in test [1] was determined as 92.2%. For the same compound, the percent effect in test [2] was -3.7%.

As for `C#C[C@]1(O)CC[C@H]2[C@@H]3CCC4=C[C@@H](O)CC[C@@H]4[C@H]3CC[C@@]21C` [etynodiol], the percent viability with HEK293T was found to be 301%. Further, the mCherry in test [1] came out at 54.6%. In test [2], the percent effect worked out at 2.82%.

Regarding `C=CCC1(C2C=CCC2)C(=O)NC(=O)NC1=O` (stereo not given), the percent viability with HEK293T was 435%. In test [1], the mCherry worked out at 99.4%. Moreover, the percent effect in test [2] is -4.5%.

Consider `O=C(NC(=O)c1c(F)cccc1F)Nc1cc(Cl)c(OC(F)(F)C(F)C(F)(F)F)cc1Cl` (stereo not given) [lufenuron], for which the percent viability with HEK293T stood at 257%. The compound also had a mCherry in test [1] of 110%. Further, in test [2], the percent effect amounted to 1.24%.

Take `CNC(C)Cc1ccccc1OC` (stereo not given) [methoxyphenamine]: the percent viability in the test with HEK293T is 202%. The compound further returned a mCherry in test [1] of 102%. In test [2], the percent effect is -2.13%.

Regarding `c1ccc2nc(N3CCNCC3)ccc2c1` [quipazine], the percent viability with HEK293T was 431%. Also, the mCherry in test [1] worked out at 100%. In addition, the percent effect in test [2] was -0.952%.

Consider `CCC(C)(C)C1C(=O)N2CCCC2C2(O)OC(NC(=O)C3CC4c5cccc6[nH]cc(c56)CC4N(C)C3)(C(C)C)C(=O)N12` (stereo not given) [Ergoloid mesylate], for which, in the test with HEK293T, the percent viability came to 340%. Besides, the mCherry in test [1] came to 100%. Also, the percent effect in test [2] turned out to be 1.93%.

As to `CC1Oc2ccccc2CC1N(C)C` (stereo not given) [trebenzomine], the percent viability in the test with HEK293T came out at 236%. The compound further registered a mCherry in test [1] of 76%. In test [2], the percent effect was determined as 1.11%.

For `Oc1cccc2cccnc12`, the percent viability in the test with HEK293T turned out to be 88.1%. The same compound returned a mCherry in test [1] of 118%. The percent effect in test [2] is -17.2%.

Consider `CCOc1ccc2c3c1O[C@H]1[C@@H](O)C=C[C@H]4[C@@H](C2)N(C)CC[C@@]341`, for which the percent viability in the test with HEK293T was 290%. Moreover, in test [1], the mCherry is 88.5%. Moreover, the percent effect in test [2] came out at 0.202%.

With `CCCC[N+]1(C)[C@H]2CC(OC(=O)C(CO)c3ccccc3)C[C@H]1[C@H]1O[C@H]12` (stereo not given in full) [Scopolamine N-butyl], the percent viability in the test on HEK293T is 222%. The compound also showed a mCherry in test [1] of 94.9%. Also, the percent effect in test [2] was 2%.

As to `C[C@@H]([C@H](O)c1ccccc1)N(C)C`, the percent viability in the test with HEK293T was found to be 294%. Besides, the mCherry in test [1] turned out to be 122%. The percent effect in test [2] was -6.35%.

With `CCc1c(C(=O)C(N)=O)c2c(OCC(=O)O)cccc2n1Cc1ccccc1` [varespladib], the percent viability with HEK293T was 78.1%. Also, the mCherry in test [1] is 98.3%. For the same compound, the percent effect in test [2] is -2.48%.
